Source: the supplement of paper PMC12823440, “Inhibitors supercharge kinase turnover through native proteolytic circuits” (Nature, 2025)
Where a name gives a salt, the structure may show the parent alone. This is one part of the list. The calls rarely recur for the same compound in another form.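 Kinases were expressed as nanoluciferase fusions in K562 cells and luminescence was read every 4 h between 2 and 18 h as percent of control, DMSO set to 100% and a positive control to 0%. A time point counts as decreased when the signal drops significantly (2 sigma). The hit call is the authors' own, does not follow from the count of time points alone, and its rule is not shown.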

Chains of the proteins cited; added tags and fusions are not shown. Lines headed by an entry give the natural chain unless they say otherwise; changes in a name come on top.
UniProt Q13555: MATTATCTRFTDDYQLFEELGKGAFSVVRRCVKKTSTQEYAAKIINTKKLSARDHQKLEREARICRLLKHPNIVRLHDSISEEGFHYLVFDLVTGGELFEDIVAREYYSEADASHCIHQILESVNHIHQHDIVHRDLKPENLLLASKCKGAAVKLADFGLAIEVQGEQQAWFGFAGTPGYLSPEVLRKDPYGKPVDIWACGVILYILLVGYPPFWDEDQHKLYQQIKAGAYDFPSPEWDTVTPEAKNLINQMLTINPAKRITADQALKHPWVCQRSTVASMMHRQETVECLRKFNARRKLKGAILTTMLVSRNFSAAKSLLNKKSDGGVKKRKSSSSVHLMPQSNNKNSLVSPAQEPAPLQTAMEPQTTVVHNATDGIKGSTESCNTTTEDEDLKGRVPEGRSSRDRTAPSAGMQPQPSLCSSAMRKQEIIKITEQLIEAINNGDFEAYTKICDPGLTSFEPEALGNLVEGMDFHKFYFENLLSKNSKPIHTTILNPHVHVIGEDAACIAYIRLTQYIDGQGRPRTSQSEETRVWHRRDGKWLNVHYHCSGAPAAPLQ

Target: CAMK2G (UniProt Q13555)
Test: kinase-Nluc reporter destabilization hit call (1 = scored as downregulated) (binary); higher = compound decreases kinase abundance
Details: 10 µM; K562; 2-18 h

kinase-Nluc reporter destabilization hit call, inactive:
CCS(=O)(=O)N1CCN(c2ccc(Nc3ncc(C(N)=O)c(NC4CC4)n3)cc2)CC1 [Cerdulatinib (hydrochloride)] 0
C[C@@H](N)c1ccc(C(=O)Nc2ccnc3[nH]ccc23)cc1 0
COc1ncc(F)cc1CNc1ccc(Cc2c[nH]c3ncc(C)cc23)c(F)n1 0
CCS(=O)(=O)N1CC(CC#N)(n2cc(-c3ncnc4[nH]ccc34)cn2)C1 [Baricitinib (phosphate)] 0
COC(=O)[C@H](CC(C)C)NC(=O)c1ccc(NC[C@@H](N)CS)cc1-c1cccc2ccccc12 [GGTI298 (Trifluoroacetate)] 0
COCCOc1cc(F)c2c(Nc3ccc(NC(=O)Cn4cc(C(C)C)nn4)cc3)ncnc2c1 [AZD3229 Tosylate] 0
CC(C)(C)n1nc(-c2cccc3ccccc23)c2c(N)ncnc21 [1-Naphthyl PP1] 0
N#CCNC(=O)c1ccc(-c2ccnc(Nc3ccc(N4CCOCC4)cc3)n2)cc1 [Momelotinib sulfate] 0
Cn1ncc(Cl)c1-c1cc(C(=O)N[C@H](CN)Cc2cccc(F)c2)sc1Cl [Afuresertib] 0
CNC(=O)c1ccc(Nc2ncc(C(F)(F)F)c(NCc3nccnc3N(C)S(C)(=O)=O)n2)cc1 [Defactinib] 0
O=C(O)c1ccc2c(c1)nc(Nc1cccc(Cl)c1)c1ccncc12 [Silmitasertib] 0
O=C(Nc1cnn2ccc(N3CCC[C@@H]3c3cc(F)ccc3F)nc12)N1CC[C@H](O)C1 [Larotrectinib] 0
